Source: PubChem BioAssay AID504786 (Drosophila RNAi Screening Center, 2011)
In all, the deposit lists about 21,000 reagents; this is a random part of those with a known target gene and a result. 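Primary screen; positive scores mean lost reporter signal, so the sign may be inverted from the usual convention.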 A plus sign joins genes that one reagent is predicted to hit.

Assay: 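Knock-downs reducing HIF reporter induction by the iron chelator DFO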 (primary screen)
Cells: Drosophila S2 cells with a stable HIF luciferase reporter
Reagent: long dsRNA against Drosophila genes, about 0.2 µg dsRNA per well of a 384-well plate
Time to read-out: three days of knock-down, then 20 h of DFO before reading
Treatment: desferrioxamine (DFO) at 100 µM, an iron chelator that mimics hypoxia, for 20 h
Measurement: 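HIF reporter luminescence in cells given 100 µM DFO for 20 h, using the mouse ldh-a hypoxia-response element, scored as per-plate z-scores; higher means greater loss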
Direction: z-score: higher = stronger loss of HIF reporter signal

With knock-down of IntS12 [DRSC15818] the results were z-score, replicate 1 = 0.3; z-score, replicate 2 = -0.3.
ro [DRSC17046] scored z-score, replicate 1 = -0.7; z-score, replicate 2 = -0.6.
Knock-down of Hsp67Bc [DRSC11193] gave: z-score, replicate 1 = -0.2; z-score, replicate 2 = -0.1.
After knock-down of CG9259 [DRSC03174], the screen gave z-score, replicate 1 = -0.3; z-score, replicate 2 = -0.3.
gammaSnap1 [DRSC04686] showed z-score, replicate 1 = -0.2; z-score, replicate 2 = -0.4.

Reprinted from above, 2 entries:
CG9259 [DRSC03174] → z-score, replicate 1: -0.3; z-score, replicate 2: -0.3
gammaSnap1 [DRSC04686] → z-score, replicate 1: -0.2; z-score, replicate 2: -0.4

The listing continues.
After knock-down of hry [DRSC11353] the results were z-score, replicate 1 = 1.7; z-score, replicate 2 = 1.
Against Nepl3 [DRSC02681], the entry reads z-score, replicate 1 = -0.2; z-score, replicate 2 = -0.4.
Against Mmp2 [DRSC06698], the values are z-score, replicate 1 = -0.4; z-score, replicate 2 = -0.5.
Silencing of AP-2alpha [DRSC00800] came out at: z-score, replicate 1 = -0.6; z-score, replicate 2 = -0.8.
For Ugt37E1 [DRSC02248], the entry reads z-score, replicate 1 = -0.2; z-score, replicate 2 = -0.4.
Against CG14282 [DRSC14763], the values are z-score, replicate 1 = -0.4; z-score, replicate 2 = 0.3.
For CG34234 + Dh44-R2 [DRSC07278], the values are z-score, replicate 1 = -0.3; z-score, replicate 2 = -0.3.
Knock-down of CG15739 [DRSC19705] came out at: z-score, replicate 1 = -0.2; z-score, replicate 2 = 0.4.
With knock-down of Sr-CII [DRSC07557], the screen gave z-score, replicate 1 = -0.3; z-score, replicate 2 = 0.
CG6356 [DRSC16026] showed z-score, replicate 1 = -0.3; z-score, replicate 2 = -0.2.
For Pgant8 [DRSC10801] the deposit lists z-score, replicate 1 = -0.1; z-score, replicate 2 = -0.1.
